According to publication PMC6925144, “A prospective compound screening contest identified broader inhibitors for Sirtuin 1” (Scientific Reports, 2019):
Whole data set: some 3,200 compounds, median “TSA(with NAD+) / Primary screening (TSA) / delta Tm (K)” near -0.04, cut for the highest 2% near 0.37. The list shows a part of the results.

Amino acid sequences for entries named in this document (tags omitted). Residues count along the entry.
UniProt Q96EB6, 2-747 limits assumed: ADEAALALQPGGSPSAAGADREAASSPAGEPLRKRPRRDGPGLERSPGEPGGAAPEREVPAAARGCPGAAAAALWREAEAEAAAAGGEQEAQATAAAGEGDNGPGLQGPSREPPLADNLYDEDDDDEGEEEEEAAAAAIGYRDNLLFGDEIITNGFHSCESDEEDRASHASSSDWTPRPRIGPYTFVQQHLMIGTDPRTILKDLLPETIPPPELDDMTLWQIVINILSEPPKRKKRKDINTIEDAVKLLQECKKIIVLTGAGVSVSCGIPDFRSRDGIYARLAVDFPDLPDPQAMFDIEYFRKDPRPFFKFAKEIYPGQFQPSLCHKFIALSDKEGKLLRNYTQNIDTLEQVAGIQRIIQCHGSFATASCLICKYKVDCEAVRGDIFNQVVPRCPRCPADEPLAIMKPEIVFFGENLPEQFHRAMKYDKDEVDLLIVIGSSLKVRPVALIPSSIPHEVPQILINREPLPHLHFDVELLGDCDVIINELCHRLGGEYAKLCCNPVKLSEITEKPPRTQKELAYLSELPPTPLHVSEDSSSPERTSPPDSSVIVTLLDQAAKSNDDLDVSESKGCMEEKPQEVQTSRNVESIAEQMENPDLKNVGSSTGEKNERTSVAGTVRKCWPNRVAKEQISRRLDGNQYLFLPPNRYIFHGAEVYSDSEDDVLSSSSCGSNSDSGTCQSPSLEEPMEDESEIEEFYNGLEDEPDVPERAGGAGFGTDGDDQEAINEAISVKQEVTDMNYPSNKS

The compounds below were run against NAD-dependent deacetylase Sirtuin 1 (human, UniProt Q96EB6) (assay: primary screen, delta tm). Conditions: 10 µM.
Parameters: single well (n = 1, as 'the same TSA')

SMILES | TSA(with NAD+) / Primary screening (TSA) / delta Tm (K)
O=C(COC(=O)CN1C(=O)CSc2ccccc21)Nc1ccccc1SCc1ccccc1 | 0.06
COCc1c(C(=O)Nc2ccc(N3CCN(Cc4ccccc4)CC3)cc2)oc2ccccc12 | -0.09
OCCNc1ncnc2ccsc12 | 0.01
COC(=O)c1ccc2[nH]cnc2c1 | -0.24
Cc1cn2c3c(=O)[nH]c(=O)n(C)c3nc2n1CCCN1CCc2ccccc2C1 | -0.28
COc1cccc(-n2ccnc2SC2CCCCNC2=O)c1 (centres unmarked) | -0.03
COc1ccc(C(=O)C2=C(O)C(=O)N(CCCN3CCOCC3)C2c2ccccc2)cc1 (centres unmarked) | -0.18
OC1CCN(c2ncnc3ccsc23)CC1 | -0.05
CN(c1cccnc1)S(=O)(=O)c1cnc2c(c1)c(=O)[nH]c(=O)n2C | -0.12
CN(c1ccc2ccccc2c1)S(=O)(=O)c1cccc(C#N)c1 | -0.05
COc1ccc2cc(/C=C/C(=O)Nc3ccc(C(N)=O)cc3)ccc2c1 | 0.76
CN(c1ccccc1)S(=O)(=O)c1cccc(C(=O)OCC(=O)Nc2ccc(C(N)=O)cc2)c1 | -0.02
O=C(Cc1c[nH]c2ccccc12)NCc1ccc(-c2ccc(O)cc2)cc1 | 0.08
Cc1ccc(NC(=O)CN(C)S(=O)(=O)c2ccc3c(c2)CC(=O)N3C)cc1 | 0.03
Cc1sc2ncnc(N3CCC(C(=O)Nc4sc5c(c4C(N)=O)CCC(C)C5)CC3)c2c1C (centres unmarked) | 0.16
c1ccc(-c2nc(-c3cnn(-c4ccccc4)n3)[nH]c2-c2ccccc2)cc1 | 0.19
O=C(Nc1ccccc1Cc1ccccc1)c1ccc(CN2C(=O)CNC2=O)cc1 | 0.05
O=C(c1ccc[nH]1)N1CCCC1c1ccc2c(c1)OCCCO2 (centres unmarked) | 0.03
CCCOc1ccc(C2C(C(=O)c3ccc(OC)cc3)=C(O)C(=O)N2CCCN2CCOCC2)cc1 (centres unmarked) | -0.01
CCC(OC)C(=O)O (centres unmarked) | -0.03
COc1ccc(C(=O)Nc2ccccc2Oc2ccccc2)cc1OC | -0.09
CCc1cccc(C)c1NC(=O)c1cccc(S(=O)(=O)N(C)c2ccc(C)cc2)c1 | -0.11
N#Cc1cn(CCCOc2ccccc2)c2ccc(Cl)cc2c1=O | -0.04
Cn1c(Cl)c(C=O)c2cc(C=O)ccc21 | -0.16
Cc1ccc(N(C)S(=O)(=O)c2cccc(C(=O)Nc3c(C)cc(C)cc3Cl)c2)cc1 | 0.05
CNc1[nH]cnc2ncnc1-2 | -0.01

Retrieved one by one from the list above, 2 records:
SMILES | TSA(with NAD+) / Primary screening (TSA) / delta Tm (K)
CCCOc1ccc(C2C(C(=O)c3ccc(OC)cc3)=C(O)C(=O)N2CCCN2CCOCC2)cc1 (centres unmarked) | -0.01
Cc1ccc(N(C)S(=O)(=O)c2cccc(C(=O)Nc3c(C)cc(C)cc3Cl)c2)cc1 | 0.05
